In article PMC10319584:
No constants are given. Whether binding was seen depends on the method and setting. Binding seen in cells or lysates may run through a third protein. Here binding means that the protein was enriched with, or labelled near, the bait; the list need not be complete. Sequences can lack the tags named with a protein.

Chains of the proteins cited; added tags and fusions are not shown. Residues count along the entry.
UniProt P31946: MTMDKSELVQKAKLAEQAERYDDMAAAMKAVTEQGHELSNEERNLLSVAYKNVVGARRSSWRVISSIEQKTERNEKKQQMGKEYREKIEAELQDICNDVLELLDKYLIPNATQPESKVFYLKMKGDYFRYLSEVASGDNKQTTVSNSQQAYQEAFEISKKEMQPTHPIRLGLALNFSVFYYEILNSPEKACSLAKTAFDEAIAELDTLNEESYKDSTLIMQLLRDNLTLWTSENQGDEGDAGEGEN
UniProt Q07021, residues 74-282: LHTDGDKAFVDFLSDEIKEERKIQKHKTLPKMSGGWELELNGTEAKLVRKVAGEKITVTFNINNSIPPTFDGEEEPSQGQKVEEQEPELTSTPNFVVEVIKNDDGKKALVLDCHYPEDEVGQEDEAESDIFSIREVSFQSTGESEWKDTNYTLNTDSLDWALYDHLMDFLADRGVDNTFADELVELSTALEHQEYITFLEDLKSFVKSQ
UniProt P12004: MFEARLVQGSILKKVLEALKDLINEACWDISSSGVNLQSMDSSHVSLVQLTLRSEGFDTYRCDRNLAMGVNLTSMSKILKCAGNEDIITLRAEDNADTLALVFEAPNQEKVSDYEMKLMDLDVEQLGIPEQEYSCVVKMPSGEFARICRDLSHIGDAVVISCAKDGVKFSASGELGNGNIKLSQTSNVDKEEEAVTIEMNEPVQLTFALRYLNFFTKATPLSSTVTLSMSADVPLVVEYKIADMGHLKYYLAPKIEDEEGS
UniProt Q9Y657: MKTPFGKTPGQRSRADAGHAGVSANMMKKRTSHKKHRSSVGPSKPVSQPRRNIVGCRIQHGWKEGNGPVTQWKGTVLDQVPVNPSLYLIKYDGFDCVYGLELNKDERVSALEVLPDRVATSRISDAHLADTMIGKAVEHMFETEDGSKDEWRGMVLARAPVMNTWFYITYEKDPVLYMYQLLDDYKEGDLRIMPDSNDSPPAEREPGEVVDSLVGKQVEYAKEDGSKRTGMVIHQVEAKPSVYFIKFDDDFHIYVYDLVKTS
UniProt Q9BQA1: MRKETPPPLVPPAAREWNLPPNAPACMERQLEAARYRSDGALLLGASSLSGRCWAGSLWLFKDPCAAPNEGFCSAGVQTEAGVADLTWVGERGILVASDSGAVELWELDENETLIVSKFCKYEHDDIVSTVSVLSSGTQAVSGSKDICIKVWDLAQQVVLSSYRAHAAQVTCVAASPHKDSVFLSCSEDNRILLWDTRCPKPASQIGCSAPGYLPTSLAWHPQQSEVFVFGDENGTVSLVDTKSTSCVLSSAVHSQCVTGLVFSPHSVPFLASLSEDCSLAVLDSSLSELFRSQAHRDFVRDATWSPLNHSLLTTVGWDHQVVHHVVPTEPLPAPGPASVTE
UniProt P78417: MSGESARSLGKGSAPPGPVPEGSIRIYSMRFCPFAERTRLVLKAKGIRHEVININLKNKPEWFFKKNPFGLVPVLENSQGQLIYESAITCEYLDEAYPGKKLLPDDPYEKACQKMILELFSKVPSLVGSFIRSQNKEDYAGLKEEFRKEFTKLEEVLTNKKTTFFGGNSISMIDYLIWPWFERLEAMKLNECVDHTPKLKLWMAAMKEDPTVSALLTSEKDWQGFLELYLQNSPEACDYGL
UniProt O94903: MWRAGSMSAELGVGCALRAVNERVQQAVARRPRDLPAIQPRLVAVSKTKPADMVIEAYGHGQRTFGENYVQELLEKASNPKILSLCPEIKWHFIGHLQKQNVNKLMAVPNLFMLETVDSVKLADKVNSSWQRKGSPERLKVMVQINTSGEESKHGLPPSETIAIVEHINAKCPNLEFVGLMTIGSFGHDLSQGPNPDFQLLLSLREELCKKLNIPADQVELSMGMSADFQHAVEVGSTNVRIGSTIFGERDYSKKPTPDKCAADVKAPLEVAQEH
UniProt P62136: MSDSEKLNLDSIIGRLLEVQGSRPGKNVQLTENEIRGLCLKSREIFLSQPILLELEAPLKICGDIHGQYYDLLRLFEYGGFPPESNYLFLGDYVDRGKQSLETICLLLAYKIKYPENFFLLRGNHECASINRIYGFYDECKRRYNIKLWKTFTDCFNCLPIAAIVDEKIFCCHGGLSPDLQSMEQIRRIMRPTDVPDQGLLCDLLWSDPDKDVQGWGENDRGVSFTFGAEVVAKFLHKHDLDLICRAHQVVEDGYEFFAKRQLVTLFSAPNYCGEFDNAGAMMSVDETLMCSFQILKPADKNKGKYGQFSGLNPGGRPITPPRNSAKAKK
UniProt P54105: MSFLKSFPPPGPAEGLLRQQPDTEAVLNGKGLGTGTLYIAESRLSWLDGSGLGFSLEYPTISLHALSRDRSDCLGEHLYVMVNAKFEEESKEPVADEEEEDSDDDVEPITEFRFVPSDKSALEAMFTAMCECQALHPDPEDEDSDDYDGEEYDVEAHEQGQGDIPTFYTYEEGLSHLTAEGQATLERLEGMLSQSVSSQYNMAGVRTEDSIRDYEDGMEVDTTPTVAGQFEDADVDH

T1: FLAG-Fra-1 (Fos-related antigen 1) (UniProt P15407)
T1 sequence: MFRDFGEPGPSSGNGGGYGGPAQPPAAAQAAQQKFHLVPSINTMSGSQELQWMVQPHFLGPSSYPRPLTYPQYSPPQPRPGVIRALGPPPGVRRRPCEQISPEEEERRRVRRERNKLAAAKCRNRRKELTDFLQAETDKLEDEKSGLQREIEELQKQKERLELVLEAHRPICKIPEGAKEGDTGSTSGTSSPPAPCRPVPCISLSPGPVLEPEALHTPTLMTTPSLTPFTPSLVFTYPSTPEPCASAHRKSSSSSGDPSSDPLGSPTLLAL


Molecular target: T1, FLAG-Fra-1 (Fos-related antigen 1)
Assay: affinity purification with mass spectrometry; FLAG-Fra-1 precipitated with anti-FLAG affinity gel beads from SGC7901 cells; SDS-PAGE, Coomassie stain, band at 25~40 kDa cut out, trypsin digest, LC-MS/MS; proteins specific to the FLAG lane against the IgG lane

Molecule | binding
14-3-3 protein beta/alpha (from UniProt P31946 1-246) | binds
Complement component 1 Q subcomponent-binding protein, mitochondrial (from UniProt Q07021 74-282) | binds
Proliferating cell nuclear antigen (from UniProt P12004 1-261) | binds
Spindlin-1 (from UniProt Q9Y657 1-262) | binds
Methylosome protein 50 (from UniProt Q9BQA1 1-342) | binds
Glutathione S-transferase omega-1 (Fragment) (from UniProt P78417 1-241) | binds
tyrosine 3-monooxygenase/tryptophan 5-monooxygenase activation protein eta (YWHAH) (protein, UniProt Q04917 1-246) MGDREQLLQRARLAEQAERYDDMASAMKAVTELNEPLSNEDRNLLSVAYKNVVGARRSSWRVISSIEQKTMADGNEKKLEKVKAYREKIEKELETVCNDVLSLLDKFLIKNCNDFQYESKVFYLKMKGDYYRYLAEVASGEKKNSVVEASEAAYKEAFEISKEQMQPTHPIRLGLALNFSVFYYEIQNAPEQACLLAKQAFDDAIAELDTLNEDSYKDSTLIMQLLRDNLTLWTSDQQDEEAGEGN | binds

Other lines, results leading:

binding | Molecule
binds | Pyridoxal phosphate homeostasis protein (from UniProt O94903 1-275)
binds | Serine/threonine-protein phosphatase PP1-alpha catalytic subunit (from UniProt P62136 1-330)
binds | Methylosome subunit pICln (from UniProt P54105 1-237)
binds | Elongation factor 1-beta (protein, UniProt P24534 1-225) MGFGDLKSPAGLQVLNDYLADKSYIEGYVPSQADVAVFEAVSSPPPADLCHALRWYNHIKSYEKEKASLPGVKKALGKYGPADVEDTTGSGATDSKDDDDIDLFGSDDEEESEEAKRLREERLAQYESKKAKKPALVAKSSILLDVKPWDDETDMAKLEECVRSIQADGLVWGSSKLVPVGYGIKKLQIQCVVEDDKVGTDMLEEQITAFEDYVQSMDVAAFNKI
binds | Fructose-bisphosphate aldolase (protein, UniProt P04075 1-364) MPYQYPALTPEQKKELSDIAHRIVAPGKGILAADESTGSIAKRLQSIGTENTEENRRFYRQLLLTADDRVNPCIGGVILFHETLYQKADDGRPFPQVIKSKGGVVGIKVDKGVVPLAGTNGETTTQGLDGLSERCAQYKKDGADFAKWRCVLKIGEHTPSALAIMENANVLARYASICQQNGIVPIVEPEILPDGDHDLKRCQYVTEKVLAAVYKALSDHHIYLEGTLLKPNMVTPGHACTQKFSHEEIAMATVTALRRTVPPAVTGITFLSGGQSEEEASINLNAINKCPLLKPWALTFSYGRALQASALKAWGGKKENLKAAQEEYVKRALANSLACQGKYTPSGQAGAAASESLFVSNHAY
